Source: the supplement of paper PMC7666118
The list shows a part of the results.

Sequences of proteins named here, by UniProt entry; tags and fusion partners are left off. A change or cut given only in a name is not applied to a line headed by its entry.
UniProt P15309: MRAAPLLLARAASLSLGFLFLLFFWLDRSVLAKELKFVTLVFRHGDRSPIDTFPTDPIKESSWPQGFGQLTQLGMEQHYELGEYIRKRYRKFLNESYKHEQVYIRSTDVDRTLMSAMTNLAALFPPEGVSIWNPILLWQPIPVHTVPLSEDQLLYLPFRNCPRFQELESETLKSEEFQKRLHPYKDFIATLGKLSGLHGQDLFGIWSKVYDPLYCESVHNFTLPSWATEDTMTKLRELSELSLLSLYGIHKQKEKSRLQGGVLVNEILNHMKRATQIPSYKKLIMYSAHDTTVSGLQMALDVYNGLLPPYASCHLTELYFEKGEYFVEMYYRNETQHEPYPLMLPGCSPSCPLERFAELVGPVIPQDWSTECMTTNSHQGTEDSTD
UniProt Q99996, whole entry: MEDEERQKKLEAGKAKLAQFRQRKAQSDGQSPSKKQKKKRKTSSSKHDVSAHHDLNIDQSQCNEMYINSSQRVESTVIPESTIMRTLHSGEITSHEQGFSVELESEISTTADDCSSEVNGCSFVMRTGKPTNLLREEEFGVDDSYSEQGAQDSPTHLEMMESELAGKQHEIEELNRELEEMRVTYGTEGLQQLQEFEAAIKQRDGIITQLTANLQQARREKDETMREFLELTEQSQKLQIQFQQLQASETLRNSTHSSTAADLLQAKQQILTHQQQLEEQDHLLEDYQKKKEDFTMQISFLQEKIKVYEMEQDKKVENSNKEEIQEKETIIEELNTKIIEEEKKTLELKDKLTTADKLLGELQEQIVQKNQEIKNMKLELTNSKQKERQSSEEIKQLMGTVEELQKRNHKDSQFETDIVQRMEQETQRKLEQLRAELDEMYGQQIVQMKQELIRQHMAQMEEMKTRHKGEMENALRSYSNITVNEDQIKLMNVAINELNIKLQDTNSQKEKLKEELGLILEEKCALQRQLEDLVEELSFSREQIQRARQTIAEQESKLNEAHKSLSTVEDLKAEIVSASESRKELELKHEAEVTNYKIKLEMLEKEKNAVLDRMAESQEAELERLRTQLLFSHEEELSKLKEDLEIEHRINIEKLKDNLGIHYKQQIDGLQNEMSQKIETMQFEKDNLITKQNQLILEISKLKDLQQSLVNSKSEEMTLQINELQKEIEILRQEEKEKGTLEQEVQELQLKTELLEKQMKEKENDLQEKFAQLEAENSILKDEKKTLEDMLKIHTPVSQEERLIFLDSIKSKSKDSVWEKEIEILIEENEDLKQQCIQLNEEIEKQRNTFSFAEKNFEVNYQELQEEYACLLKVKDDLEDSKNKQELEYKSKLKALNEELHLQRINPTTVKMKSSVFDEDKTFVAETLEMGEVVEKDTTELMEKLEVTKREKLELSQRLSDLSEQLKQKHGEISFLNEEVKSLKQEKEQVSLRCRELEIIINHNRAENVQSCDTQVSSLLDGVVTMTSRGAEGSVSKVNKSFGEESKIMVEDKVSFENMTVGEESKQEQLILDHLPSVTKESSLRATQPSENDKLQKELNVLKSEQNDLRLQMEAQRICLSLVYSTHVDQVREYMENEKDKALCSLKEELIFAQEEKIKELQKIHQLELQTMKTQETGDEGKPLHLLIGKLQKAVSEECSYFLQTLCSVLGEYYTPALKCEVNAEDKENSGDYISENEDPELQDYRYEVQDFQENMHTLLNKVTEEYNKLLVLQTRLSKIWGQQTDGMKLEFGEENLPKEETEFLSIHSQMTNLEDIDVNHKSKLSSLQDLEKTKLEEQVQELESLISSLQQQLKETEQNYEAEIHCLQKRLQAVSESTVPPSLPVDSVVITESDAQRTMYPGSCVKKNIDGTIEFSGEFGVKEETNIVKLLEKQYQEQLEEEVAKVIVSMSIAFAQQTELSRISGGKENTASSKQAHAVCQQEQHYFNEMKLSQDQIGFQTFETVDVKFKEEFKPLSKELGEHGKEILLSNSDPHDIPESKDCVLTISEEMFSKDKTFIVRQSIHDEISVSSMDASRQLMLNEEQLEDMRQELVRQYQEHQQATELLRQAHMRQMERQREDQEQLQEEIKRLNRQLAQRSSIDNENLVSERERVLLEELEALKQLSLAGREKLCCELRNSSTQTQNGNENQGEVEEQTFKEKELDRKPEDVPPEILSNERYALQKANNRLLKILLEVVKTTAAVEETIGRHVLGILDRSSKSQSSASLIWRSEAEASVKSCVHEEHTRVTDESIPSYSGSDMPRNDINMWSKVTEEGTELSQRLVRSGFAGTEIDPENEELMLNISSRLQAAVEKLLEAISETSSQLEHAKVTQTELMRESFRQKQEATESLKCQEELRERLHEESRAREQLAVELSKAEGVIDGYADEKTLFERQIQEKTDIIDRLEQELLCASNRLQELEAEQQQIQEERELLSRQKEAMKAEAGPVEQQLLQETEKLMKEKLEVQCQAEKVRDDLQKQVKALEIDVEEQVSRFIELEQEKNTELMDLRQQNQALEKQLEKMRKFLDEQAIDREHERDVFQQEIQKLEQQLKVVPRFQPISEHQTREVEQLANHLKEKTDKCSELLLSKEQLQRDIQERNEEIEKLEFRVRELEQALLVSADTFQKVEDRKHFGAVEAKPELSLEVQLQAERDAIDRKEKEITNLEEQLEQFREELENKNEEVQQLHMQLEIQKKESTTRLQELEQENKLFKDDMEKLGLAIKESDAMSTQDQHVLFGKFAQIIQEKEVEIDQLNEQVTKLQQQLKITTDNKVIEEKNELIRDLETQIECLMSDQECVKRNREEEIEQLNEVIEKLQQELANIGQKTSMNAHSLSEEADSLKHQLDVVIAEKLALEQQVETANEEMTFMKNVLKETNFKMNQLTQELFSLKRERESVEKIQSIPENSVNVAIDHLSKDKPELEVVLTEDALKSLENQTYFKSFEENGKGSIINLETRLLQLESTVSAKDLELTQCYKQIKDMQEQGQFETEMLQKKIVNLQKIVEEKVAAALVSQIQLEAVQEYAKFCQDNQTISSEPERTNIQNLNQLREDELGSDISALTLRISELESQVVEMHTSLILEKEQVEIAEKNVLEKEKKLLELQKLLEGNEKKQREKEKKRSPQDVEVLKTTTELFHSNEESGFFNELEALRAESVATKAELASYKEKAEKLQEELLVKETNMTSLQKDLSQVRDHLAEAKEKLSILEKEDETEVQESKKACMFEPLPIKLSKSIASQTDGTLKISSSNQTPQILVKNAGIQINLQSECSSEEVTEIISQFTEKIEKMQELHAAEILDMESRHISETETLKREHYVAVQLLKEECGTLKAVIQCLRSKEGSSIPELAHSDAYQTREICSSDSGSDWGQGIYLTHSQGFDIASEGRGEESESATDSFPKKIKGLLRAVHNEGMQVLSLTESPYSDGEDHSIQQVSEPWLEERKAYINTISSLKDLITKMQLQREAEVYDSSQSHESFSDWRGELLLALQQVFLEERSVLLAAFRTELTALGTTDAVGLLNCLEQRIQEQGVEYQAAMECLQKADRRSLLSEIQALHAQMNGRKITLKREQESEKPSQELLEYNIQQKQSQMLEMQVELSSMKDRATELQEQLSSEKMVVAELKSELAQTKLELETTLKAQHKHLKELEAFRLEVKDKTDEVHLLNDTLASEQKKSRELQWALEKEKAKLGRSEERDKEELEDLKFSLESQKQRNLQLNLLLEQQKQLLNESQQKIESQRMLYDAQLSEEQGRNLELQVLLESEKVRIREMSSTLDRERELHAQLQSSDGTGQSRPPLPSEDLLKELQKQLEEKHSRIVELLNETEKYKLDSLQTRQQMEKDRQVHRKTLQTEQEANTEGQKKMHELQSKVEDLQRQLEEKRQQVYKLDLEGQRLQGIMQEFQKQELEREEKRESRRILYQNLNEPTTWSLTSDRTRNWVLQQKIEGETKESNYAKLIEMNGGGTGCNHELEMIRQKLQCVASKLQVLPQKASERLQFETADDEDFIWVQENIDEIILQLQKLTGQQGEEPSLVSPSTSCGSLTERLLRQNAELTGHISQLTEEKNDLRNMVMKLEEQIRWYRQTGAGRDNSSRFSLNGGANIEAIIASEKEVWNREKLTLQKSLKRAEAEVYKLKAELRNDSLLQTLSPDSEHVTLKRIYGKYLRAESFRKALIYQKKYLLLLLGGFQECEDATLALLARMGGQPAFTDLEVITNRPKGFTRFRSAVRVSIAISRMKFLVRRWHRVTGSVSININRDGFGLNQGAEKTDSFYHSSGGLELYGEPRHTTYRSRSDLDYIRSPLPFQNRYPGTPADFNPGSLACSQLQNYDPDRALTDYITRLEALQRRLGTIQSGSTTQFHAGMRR
UniProt P49189: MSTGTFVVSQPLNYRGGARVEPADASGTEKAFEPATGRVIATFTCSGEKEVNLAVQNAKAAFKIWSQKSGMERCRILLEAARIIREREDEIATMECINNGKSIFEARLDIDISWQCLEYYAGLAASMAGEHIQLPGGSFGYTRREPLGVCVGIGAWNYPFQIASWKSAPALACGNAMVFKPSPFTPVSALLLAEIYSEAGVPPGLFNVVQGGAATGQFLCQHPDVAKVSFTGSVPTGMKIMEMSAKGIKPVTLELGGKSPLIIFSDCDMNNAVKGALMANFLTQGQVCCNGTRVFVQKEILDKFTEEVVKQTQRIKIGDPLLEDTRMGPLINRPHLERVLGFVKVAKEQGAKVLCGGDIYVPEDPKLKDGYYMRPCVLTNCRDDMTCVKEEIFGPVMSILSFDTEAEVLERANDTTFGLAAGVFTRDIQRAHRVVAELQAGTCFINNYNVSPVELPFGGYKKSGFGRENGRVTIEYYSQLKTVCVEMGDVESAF
UniProt Q6AI12: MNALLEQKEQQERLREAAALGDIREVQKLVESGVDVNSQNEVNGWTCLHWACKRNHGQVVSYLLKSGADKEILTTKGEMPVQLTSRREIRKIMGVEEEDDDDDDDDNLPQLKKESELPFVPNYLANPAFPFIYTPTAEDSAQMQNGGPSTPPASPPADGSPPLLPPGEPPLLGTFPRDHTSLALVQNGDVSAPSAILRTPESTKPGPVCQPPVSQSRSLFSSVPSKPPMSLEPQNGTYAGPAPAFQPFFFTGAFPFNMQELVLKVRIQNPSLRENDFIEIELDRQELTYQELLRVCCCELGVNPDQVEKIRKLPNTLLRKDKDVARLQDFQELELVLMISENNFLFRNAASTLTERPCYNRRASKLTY
UniProt Q7Z2E3: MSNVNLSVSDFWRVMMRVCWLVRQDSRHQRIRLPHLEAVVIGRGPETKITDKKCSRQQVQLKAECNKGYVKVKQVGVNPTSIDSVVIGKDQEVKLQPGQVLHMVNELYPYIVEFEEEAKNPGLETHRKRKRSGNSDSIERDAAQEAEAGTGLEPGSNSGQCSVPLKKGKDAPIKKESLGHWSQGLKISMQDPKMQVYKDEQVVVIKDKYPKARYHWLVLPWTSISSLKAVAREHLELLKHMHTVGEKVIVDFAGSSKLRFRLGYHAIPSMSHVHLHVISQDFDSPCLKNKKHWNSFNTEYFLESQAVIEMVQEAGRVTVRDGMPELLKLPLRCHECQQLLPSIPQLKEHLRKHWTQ
UniProt Q9BV10: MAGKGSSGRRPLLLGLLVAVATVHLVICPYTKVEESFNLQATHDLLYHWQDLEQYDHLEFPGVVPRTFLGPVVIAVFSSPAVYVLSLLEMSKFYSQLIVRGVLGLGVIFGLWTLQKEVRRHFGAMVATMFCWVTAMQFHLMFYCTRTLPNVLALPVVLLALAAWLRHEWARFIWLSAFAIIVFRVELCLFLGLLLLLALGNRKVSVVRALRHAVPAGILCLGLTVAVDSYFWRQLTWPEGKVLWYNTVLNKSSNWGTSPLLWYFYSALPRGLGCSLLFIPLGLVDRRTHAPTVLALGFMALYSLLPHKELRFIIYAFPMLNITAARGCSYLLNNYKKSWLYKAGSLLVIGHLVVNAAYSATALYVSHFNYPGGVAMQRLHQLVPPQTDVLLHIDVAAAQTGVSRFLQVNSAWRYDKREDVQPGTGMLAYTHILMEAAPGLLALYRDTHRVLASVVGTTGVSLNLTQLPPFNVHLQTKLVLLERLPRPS
UniProt Q6NS38: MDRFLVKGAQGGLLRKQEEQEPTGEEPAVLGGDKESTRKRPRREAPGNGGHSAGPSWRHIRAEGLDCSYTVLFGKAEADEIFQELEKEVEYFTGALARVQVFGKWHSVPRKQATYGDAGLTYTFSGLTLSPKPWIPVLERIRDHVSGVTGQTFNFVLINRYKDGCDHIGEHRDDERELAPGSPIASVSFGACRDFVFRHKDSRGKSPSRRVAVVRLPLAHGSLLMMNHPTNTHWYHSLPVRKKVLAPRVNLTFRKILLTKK

These targets were tested with COc1ccc(Cn2ccc3ccc(C(=O)NO)cc32)cc1 (assay: dose-dependent thermal stabilisation call (2D-TPP, DLPTP, 10% FDR) (binary (1 = stabilised)); higher = stabilised by the compound). Conditions: system: HL-60 intact cells; concentration range 0.04-10 µM.
In the case of APAF1 (UniProt O14727), the “dose-dependent thermal stabilisation call” value is reported as inactive: 0.
For ACPP (UniProt P15309), the “dose-dependent thermal stabilisation call” value was inactive: 0.
With AKAP9 (UniProt Q99996) the “dose-dependent thermal stabilisation call” value was inactive: 0.
With ADA (UniProt P00813) the “dose-dependent thermal stabilisation call” value was inactive: 0.
In the case of ALDH9A1 (UniProt P49189), the “dose-dependent thermal stabilisation call” value is reported as inactive: 0.
With ACTR2 (UniProt P61160) the “dose-dependent thermal stabilisation call” value was inactive: 0.
ANKRD40 (UniProt Q6AI12) was tested, and the “dose-dependent thermal stabilisation call” value was inactive: 0.
With APTX (UniProt Q7Z2E3) the “dose-dependent thermal stabilisation call” value was inactive: 0.
With ALG12 (UniProt Q9BV10) the “dose-dependent thermal stabilisation call” value was inactive: 0.
In the case of ALKBH2 (UniProt Q6NS38), the “dose-dependent thermal stabilisation call” value is reported as inactive: 0.
In the case of AMBRA1 (UniProt Q9C0C7), the “dose-dependent thermal stabilisation call” value is reported as inactive: 0.
